PubChem BioAssay AID1224828 | NIAID – 2016
This is an unselected part of about 17,000 reagents. 762 of all reagents (4.5%) were called active. 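Active calls include both raised and lowered p65 entry, mostly lowered; wells with fewer than 50 cells lack a z-score.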 Raw values are not corrected between plates.

Screen: 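Knock-downs that increase or decrease LPS-induced p65 nuclear translocation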 (primary screen)
Cells: mouse RAW264.7 G9 macrophage reporter cells (GFP-p65, Tnf promoter-mCherry)
Reagent: siRNA pool against mouse genes, 100 nM
Timing: 2 days siRNA transfection, then 40 min LPS before fixation
Challenge: LPS (Salmonella minnesota R595) at 10 ng/ml
Detection: 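Imaged p65 nuclear translocation ratio, normalised to the plate median, converted to robust z-scores and averaged across two replicates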
Direction: p65 translocation robust z-score: higher = more nuclear NF-kappaB p65 after LPS than the plate median; nuclear/cytoplasmic p65 ratio: higher = more nuclear NF-kappaB p65
Active means: 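Active if robust z is above 3.3 (negative regulators) or below -1.56, the Tlr4 control median (positive regulators); activity score 50 or more; control wells not called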
Calls: active = hit (p65 shift raised or lowered); inactive = no clear change

After knock-down of Sf1, the screen gave nuclear/cytoplasmic p65 ratio, rep 1 = 1.41; nuclear/cytoplasmic p65 ratio, rep 2 = 1.23; low cell count flag fewer than 50 cells per well; well left out of scoring; inactive.
Mtf2 showed p65 translocation robust z-score -0.57; nuclear/cytoplasmic p65 ratio, rep 1 = 1.3; nuclear/cytoplasmic p65 ratio, rep 2 = 1.33; low cell count flag enough cells to score; inactive.
Knock-down of Nedd4 gave: p65 translocation robust z-score -1.12; nuclear/cytoplasmic p65 ratio, rep 1 = 1.63; nuclear/cytoplasmic p65 ratio, rep 2 = 1.4; low cell count flag enough cells to score; inactive.
Knock-down of Tc2n resulted in: p65 translocation robust z-score -0.47; nuclear/cytoplasmic p65 ratio, rep 1 = 1.63; nuclear/cytoplasmic p65 ratio, rep 2 = 1.59; low cell count flag enough cells to score; inactive.
Pgk1 gave p65 translocation robust z-score -0.1; nuclear/cytoplasmic p65 ratio, rep 1 = 1.8; nuclear/cytoplasmic p65 ratio, rep 2 = 1.26; low cell count flag enough cells to score; inactive.
For Nap1l1, the entry reads p65 translocation robust z-score 0.16; nuclear/cytoplasmic p65 ratio, rep 1 = 1.87; nuclear/cytoplasmic p65 ratio, rep 2 = 1.56; low cell count flag enough cells to score; inactive.
Endod1 showed nuclear/cytoplasmic p65 ratio, rep 1 = 1.4; nuclear/cytoplasmic p65 ratio, rep 2 = 1.25; low cell count flag fewer than 50 cells per well; well left out of scoring; inactive.
Knock-down of Bclaf1 came out at: p65 translocation robust z-score -0.17; nuclear/cytoplasmic p65 ratio, rep 1 = 1.54; nuclear/cytoplasmic p65 ratio, rep 2 = 1.63; low cell count flag enough cells to score; inactive.
For Efcab5, the entry reads p65 translocation robust z-score -0.39; nuclear/cytoplasmic p65 ratio, rep 1 = 1.21; nuclear/cytoplasmic p65 ratio, rep 2 = 1.26; low cell count flag enough cells to score; inactive.
After knock-down of Lratd1, the record shows p65 translocation robust z-score -0.89; nuclear/cytoplasmic p65 ratio, rep 1 = 1.27; nuclear/cytoplasmic p65 ratio, rep 2 = 1.59; low cell count flag enough cells to score; inactive.
Tagln showed p65 translocation robust z-score 0.32; nuclear/cytoplasmic p65 ratio, rep 1 = 1.56; nuclear/cytoplasmic p65 ratio, rep 2 = 1.52; low cell count flag enough cells to score; inactive.
Or10ag56 scored p65 translocation robust z-score 0.66; nuclear/cytoplasmic p65 ratio, rep 1 = 1.94; nuclear/cytoplasmic p65 ratio, rep 2 = 1.52; low cell count flag enough cells to score; inactive.
Knock-down of 2310057J18Rik gave: p65 translocation robust z-score -1.31; nuclear/cytoplasmic p65 ratio, rep 1 = 1.29; nuclear/cytoplasmic p65 ratio, rep 2 = 1.15; low cell count flag enough cells to score; inactive.

3 entries from above, ordered by “nuclear/cytoplasmic p65 ratio, rep 2”, high to low:
Nedd4 → p65 translocation robust z-score: -1.12; nuclear/cytoplasmic p65 ratio, rep 1: 1.63; nuclear/cytoplasmic p65 ratio, rep 2: 1.4; low cell count flag: enough cells to score; outcome: inactive
Mtf2 → p65 translocation robust z-score: -0.57; nuclear/cytoplasmic p65 ratio, rep 1: 1.3; nuclear/cytoplasmic p65 ratio, rep 2: 1.33; low cell count flag: enough cells to score; outcome: inactive
Sf1 → nuclear/cytoplasmic p65 ratio, rep 1: 1.41; nuclear/cytoplasmic p65 ratio, rep 2: 1.23; low cell count flag: fewer than 50 cells per well; well left out of scoring; outcome: inactive

Continued.
Silencing of Col11a1 resulted in: p65 translocation robust z-score 1.12; nuclear/cytoplasmic p65 ratio, rep 1 = 1.61; nuclear/cytoplasmic p65 ratio, rep 2 = 1.53; low cell count flag enough cells to score; inactive.
Rnf111 showed p65 translocation robust z-score -0.43; nuclear/cytoplasmic p65 ratio, rep 1 = 1.3; nuclear/cytoplasmic p65 ratio, rep 2 = 1.22; low cell count flag enough cells to score; inactive.
Against Cnpy4, the entry reads nuclear/cytoplasmic p65 ratio, rep 1 = 1.56; nuclear/cytoplasmic p65 ratio, rep 2 = 1.22; low cell count flag fewer than 50 cells per well; well left out of scoring; inactive.
Depletion of Pramel1 resulted in: p65 translocation robust z-score -0.61; nuclear/cytoplasmic p65 ratio, rep 1 = 1.21; nuclear/cytoplasmic p65 ratio, rep 2 = 1.23; low cell count flag enough cells to score; inactive.
Plin1 scored p65 translocation robust z-score 0.82; nuclear/cytoplasmic p65 ratio, rep 1 = 1.48; nuclear/cytoplasmic p65 ratio, rep 2 = 1.2; low cell count flag enough cells to score; inactive.
After knock-down of Saa4, the screen gave p65 translocation robust z-score -1.19; nuclear/cytoplasmic p65 ratio, rep 1 = 1.23; nuclear/cytoplasmic p65 ratio, rep 2 = 1.09; low cell count flag enough cells to score; inactive.
Against Dok4, the values are p65 translocation robust z-score 0.1; nuclear/cytoplasmic p65 ratio, rep 1 = 1.55; nuclear/cytoplasmic p65 ratio, rep 2 = 1.34; low cell count flag enough cells to score; inactive.
With knock-down of Trpm1 the results were p65 translocation robust z-score -0.4; nuclear/cytoplasmic p65 ratio, rep 1 = 1.45; nuclear/cytoplasmic p65 ratio, rep 2 = 1.45; low cell count flag enough cells to score; inactive.
